Measurements as given in the supplement of paper PMC10849652.
The other results are listed elsewhere or left out.

Amino acid sequences for entries named in this document (tags omitted). A change or cut given only in a name is not applied to a line headed by its entry.
UniProt P27105: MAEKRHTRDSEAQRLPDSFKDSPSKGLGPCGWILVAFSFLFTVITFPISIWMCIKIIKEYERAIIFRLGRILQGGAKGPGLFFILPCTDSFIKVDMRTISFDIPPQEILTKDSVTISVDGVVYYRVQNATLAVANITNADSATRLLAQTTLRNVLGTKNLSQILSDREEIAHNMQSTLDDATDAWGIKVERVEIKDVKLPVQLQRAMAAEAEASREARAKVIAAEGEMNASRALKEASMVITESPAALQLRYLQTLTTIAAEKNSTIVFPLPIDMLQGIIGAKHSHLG
UniProt Q15633: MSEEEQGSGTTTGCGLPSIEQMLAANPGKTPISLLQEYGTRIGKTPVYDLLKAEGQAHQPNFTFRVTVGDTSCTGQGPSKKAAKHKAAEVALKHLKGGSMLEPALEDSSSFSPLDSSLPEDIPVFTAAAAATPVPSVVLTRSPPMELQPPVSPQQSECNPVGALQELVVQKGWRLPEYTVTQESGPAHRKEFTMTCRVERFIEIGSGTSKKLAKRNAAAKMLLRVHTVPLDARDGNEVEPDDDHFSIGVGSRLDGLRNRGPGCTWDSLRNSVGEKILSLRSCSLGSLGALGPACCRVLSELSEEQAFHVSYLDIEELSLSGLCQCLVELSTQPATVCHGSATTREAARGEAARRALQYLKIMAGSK
UniProt P16949: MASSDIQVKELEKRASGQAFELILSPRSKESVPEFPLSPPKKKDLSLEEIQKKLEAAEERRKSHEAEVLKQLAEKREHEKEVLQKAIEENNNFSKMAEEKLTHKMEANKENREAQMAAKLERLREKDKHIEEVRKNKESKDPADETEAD
UniProt Q7Z7C8, whole entry, looked up: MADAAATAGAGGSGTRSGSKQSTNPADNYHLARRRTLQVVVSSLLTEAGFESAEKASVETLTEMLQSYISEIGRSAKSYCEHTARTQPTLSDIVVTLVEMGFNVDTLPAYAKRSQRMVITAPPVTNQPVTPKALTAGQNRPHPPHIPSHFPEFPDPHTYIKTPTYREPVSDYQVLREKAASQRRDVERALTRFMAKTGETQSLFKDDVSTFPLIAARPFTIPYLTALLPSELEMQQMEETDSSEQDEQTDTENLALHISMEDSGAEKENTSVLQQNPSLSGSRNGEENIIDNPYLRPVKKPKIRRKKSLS
UniProt Q7RTN6: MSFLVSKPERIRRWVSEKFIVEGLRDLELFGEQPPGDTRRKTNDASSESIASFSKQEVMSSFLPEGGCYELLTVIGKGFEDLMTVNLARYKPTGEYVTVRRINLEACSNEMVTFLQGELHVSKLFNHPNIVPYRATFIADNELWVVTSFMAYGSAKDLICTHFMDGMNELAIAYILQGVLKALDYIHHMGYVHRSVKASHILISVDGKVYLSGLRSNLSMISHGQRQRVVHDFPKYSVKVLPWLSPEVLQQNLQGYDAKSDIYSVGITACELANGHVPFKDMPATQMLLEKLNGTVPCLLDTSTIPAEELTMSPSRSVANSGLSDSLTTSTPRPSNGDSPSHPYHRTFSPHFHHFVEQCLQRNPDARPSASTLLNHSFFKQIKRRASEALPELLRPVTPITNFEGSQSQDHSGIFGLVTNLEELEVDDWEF
UniProt Q9BW92: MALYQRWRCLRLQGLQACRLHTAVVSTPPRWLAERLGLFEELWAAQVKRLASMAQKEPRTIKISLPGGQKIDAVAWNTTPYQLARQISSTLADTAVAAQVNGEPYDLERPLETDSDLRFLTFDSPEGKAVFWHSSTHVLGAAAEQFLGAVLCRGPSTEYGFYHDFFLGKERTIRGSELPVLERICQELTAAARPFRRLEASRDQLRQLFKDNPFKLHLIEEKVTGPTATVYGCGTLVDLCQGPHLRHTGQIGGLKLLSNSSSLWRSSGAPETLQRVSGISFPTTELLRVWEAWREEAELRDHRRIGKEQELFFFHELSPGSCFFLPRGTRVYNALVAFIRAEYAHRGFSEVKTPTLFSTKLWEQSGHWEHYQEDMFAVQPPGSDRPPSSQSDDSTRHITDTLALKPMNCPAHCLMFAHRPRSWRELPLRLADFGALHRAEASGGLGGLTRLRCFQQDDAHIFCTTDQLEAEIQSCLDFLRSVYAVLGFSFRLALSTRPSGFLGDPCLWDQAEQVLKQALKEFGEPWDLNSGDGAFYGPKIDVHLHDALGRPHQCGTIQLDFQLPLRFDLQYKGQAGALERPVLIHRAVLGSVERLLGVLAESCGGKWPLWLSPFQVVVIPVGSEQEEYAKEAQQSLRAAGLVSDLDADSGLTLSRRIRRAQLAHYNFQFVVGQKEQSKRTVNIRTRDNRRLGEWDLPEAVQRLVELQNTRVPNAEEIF
UniProt Q9UH99: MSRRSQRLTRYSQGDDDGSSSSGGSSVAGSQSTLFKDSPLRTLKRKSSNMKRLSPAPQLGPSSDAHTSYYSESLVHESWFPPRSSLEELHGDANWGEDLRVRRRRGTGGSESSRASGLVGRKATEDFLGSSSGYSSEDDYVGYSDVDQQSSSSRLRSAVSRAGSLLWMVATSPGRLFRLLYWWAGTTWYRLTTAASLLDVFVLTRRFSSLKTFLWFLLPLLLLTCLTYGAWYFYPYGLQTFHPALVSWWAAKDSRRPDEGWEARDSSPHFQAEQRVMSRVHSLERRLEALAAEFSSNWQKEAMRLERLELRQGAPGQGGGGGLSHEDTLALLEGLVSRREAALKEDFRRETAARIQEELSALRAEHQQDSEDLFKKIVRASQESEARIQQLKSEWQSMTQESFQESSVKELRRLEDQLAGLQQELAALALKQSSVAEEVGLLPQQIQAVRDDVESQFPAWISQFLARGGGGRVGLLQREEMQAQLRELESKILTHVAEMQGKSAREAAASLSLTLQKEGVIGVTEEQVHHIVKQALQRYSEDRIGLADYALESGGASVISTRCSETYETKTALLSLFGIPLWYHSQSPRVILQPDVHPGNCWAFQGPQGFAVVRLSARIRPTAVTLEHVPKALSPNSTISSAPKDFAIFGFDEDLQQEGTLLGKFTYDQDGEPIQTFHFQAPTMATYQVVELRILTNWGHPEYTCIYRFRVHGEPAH
UniProt Q12846: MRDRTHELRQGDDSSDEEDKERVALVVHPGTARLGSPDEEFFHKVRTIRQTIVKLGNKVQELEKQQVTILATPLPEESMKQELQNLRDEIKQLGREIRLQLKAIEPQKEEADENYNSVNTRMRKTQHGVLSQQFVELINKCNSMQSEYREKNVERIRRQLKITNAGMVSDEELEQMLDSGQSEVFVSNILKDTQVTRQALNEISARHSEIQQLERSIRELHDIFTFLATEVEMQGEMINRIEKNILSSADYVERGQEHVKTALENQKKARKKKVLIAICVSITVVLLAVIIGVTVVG
UniProt O43815: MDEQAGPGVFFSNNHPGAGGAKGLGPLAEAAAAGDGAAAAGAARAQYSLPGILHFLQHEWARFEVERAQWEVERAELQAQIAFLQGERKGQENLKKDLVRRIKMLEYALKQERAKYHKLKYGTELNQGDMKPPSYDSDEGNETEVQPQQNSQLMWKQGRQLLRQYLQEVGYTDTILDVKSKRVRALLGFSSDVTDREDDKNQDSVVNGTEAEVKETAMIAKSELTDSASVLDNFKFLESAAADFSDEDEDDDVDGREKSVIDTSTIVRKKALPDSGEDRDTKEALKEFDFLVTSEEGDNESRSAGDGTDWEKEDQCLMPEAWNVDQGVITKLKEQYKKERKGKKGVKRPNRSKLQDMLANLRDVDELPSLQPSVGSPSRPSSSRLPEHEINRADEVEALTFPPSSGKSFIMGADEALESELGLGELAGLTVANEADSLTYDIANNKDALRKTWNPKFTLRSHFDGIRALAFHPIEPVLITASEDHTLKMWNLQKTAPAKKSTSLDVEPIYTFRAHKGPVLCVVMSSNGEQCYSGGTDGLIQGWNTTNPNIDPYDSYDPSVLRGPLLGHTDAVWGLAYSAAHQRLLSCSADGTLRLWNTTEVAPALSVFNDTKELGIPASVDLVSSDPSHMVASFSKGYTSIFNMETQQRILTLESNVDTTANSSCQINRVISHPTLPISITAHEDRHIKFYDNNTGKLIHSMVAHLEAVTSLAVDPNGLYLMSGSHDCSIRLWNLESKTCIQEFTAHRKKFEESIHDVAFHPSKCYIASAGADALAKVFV
UniProt O15400: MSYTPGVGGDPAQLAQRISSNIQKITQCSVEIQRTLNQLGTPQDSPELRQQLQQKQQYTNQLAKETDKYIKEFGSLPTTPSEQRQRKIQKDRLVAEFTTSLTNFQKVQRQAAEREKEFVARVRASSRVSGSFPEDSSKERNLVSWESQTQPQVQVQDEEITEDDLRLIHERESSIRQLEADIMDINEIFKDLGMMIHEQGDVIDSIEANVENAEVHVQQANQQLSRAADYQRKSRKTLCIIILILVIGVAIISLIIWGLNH
UniProt O75528: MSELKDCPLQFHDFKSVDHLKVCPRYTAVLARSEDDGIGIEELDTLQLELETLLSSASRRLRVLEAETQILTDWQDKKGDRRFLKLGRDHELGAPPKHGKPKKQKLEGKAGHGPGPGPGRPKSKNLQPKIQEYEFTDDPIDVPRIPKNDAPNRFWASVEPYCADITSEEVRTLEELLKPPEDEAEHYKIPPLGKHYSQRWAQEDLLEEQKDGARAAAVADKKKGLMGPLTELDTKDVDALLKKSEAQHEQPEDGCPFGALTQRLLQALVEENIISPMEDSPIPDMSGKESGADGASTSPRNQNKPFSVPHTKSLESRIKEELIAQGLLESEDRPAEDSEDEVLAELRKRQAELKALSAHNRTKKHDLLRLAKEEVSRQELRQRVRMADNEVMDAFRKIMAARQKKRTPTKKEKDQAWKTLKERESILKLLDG
UniProt Q8IWZ8: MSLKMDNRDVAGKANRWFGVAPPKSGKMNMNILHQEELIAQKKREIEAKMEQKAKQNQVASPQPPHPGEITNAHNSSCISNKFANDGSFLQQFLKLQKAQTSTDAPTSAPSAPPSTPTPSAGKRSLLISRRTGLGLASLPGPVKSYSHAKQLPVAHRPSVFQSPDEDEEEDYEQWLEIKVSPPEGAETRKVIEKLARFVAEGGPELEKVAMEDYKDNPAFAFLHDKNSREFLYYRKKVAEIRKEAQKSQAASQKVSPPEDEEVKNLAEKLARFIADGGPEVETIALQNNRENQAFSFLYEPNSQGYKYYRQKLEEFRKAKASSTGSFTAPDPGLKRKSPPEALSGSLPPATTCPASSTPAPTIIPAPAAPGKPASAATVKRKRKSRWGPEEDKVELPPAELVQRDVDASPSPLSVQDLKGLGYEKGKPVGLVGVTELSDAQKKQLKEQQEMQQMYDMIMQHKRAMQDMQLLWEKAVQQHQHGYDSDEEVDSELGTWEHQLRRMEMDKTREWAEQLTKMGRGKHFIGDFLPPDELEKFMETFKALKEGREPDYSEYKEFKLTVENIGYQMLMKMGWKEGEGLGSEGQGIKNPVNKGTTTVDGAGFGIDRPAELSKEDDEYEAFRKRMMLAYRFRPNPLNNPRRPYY
UniProt Q92844: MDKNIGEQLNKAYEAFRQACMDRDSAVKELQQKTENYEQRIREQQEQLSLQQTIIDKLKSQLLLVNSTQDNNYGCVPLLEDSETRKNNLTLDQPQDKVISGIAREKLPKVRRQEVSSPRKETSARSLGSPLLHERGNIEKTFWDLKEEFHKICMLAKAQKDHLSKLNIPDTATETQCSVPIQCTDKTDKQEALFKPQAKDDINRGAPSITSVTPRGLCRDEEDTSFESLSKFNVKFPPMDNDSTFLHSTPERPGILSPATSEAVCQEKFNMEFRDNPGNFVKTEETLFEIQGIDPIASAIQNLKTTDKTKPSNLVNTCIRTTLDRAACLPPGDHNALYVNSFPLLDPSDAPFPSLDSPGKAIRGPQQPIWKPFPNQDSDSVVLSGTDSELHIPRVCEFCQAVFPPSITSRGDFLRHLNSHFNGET
UniProt P53597: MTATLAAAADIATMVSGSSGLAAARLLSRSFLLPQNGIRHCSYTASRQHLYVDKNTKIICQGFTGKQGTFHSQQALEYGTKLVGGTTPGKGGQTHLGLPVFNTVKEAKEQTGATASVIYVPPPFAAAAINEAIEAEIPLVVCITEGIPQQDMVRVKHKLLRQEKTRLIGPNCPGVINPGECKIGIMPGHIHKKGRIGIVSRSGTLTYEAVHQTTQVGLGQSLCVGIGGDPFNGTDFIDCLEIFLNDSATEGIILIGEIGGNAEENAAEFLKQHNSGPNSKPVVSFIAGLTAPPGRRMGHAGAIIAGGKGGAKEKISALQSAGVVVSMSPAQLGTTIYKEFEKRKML
UniProt P08247, whole entry, looked up: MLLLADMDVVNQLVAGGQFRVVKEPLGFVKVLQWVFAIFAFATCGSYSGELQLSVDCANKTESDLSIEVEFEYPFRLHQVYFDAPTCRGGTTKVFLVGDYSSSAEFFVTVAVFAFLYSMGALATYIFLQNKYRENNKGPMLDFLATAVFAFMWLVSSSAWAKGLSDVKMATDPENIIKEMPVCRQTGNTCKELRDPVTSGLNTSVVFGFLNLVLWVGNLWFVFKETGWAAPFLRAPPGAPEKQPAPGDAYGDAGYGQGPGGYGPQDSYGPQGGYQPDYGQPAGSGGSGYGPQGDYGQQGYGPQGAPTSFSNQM

How the values were obtained:
Assay in all cases: log2 fold change, soluble protein after heating vs DMSO (PISA); higher = thermal stabilisation; K562 cells, 10 uM, 30 min; active = over 0.2 and 3.5 SD of the protein, either way, in both replicates (recomputed)
[1] = compound: Cc1ccc(NC(=O)c2ccc(CN3CC[C@H](N(C)C)C3)c(C(F)(F)F)c2)cc1Nc1nccc(-c2cncnc2)n1 [bafetinib]
Method in brief: (§1)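 Aliquots of K562 cells (2×10^6 cells/mL) treated with 10 μM compound for 30 min were heated for 3 min over 48°C-58°C. After pooling and extraction in PBS with 0.5% NP-40 at 4°C, soluble protein from a 21,000xg, 90 min spin was quantified by TMTpro 16plex LC-MS/MS with channel sums equalised. Thermal stability is expressed against control samples, from duplicates, as a log2 fold change.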

[2] = compound: Cc1cccc(CC(=O)N2CCc3c2ccc(-c2cn(C)c4ncnc(N)c24)c3F)n1
Method in brief: as §1

[3] = compound: Cc1cn(-c2cc(NC(=O)c3ccc(C)c(Nc4nccc(-c5cccnc5)n4)c3)cc(C(F)(F)F)c2)cn1 [nilotinib]
Method in brief: as §1

[4] = compound: Cc1nc(Nc2n[nH]c3c2CN(C(=O)N[C@H](CN(C)C)c2ccccc2)C3(C)C)c2sccc2n1
Method in brief: as §1

[5] = compound: Cc1nc(Nc2ncc(C(=O)Nc3c(C)cccc3Cl)s2)cc(N2CCN(CCO)CC2)n1 [dasatinib]
Method in brief: as §1

[6] = compound: Cc1ncc(-c2ccnc(Nc3ccc(S(C)(=O)=O)cc3)n2)n1C(C)C
Method in brief: as §1

[7] = compound: Cn1cc(-c2ccc3c(c2)CCN3C(=O)Cc2cccc(C(F)(F)F)c2)c2c(N)ncnc21
Method in brief: as §1

[8] = compound: Cn1cc(-c2ccc3nnc(C(F)(F)c4ccc5ncccc5c4)n3n2)cn1
Method in brief: as §1

[9] = compound: Cn1cncc1[C@@](N)(c1ccc(Cl)cc1)c1ccc2c(c1)c(-c1cccc(Cl)c1)cc(=O)n2C [tipifarnib]
Method in brief: as §1

[10] = compound: FC(F)(F)c1ccc(/C=C/c2nc(COc3ccc(CCCCn4ccnn4)cc3)co2)cc1 [mubritinib]
Method in brief: as §1

Row | Target | log2 fold change [1] | log2 fold change [2] | log2 fold change [3] | log2 fold change [4] | log2 fold change [5] | log2 fold change [6] | log2 fold change [7] | log2 fold change [8] | log2 fold change [9] | log2 fold change [10]
1 | STOM (UniProt P27105) | inactive: -0.01 | inactive: 0.043 | inactive: 0.039 | inactive: -0.007 | inactive: 0.039 | inactive: -0.03 | inactive: -0.043 | inactive: 0.055 | inactive: 0.031 | inactive: -0.008
2 | TARBP2 (UniProt Q15633) | inactive: 0.014 | inactive: -0.024 | inactive: -0.044 | inactive: -0.04 | inactive: 0.029 | inactive: -0.046 | inactive: -0.199 | inactive: -0.064 | inactive: 0.011 | inactive: 0.106
3 | STMN1 (UniProt P16949) | inactive: 0.005 | inactive: 0.008 | inactive: 0.008 | inactive: -0.007 | inactive: -0.001 | inactive: 0.022 | inactive: 0.03 | inactive: 0.004 | inactive: -0.034 | inactive: 0.013
4 | TAF8 isoform 2 (UniProt Q7Z7C8) | inactive: -0.064 | inactive: 0.117 | inactive: -0.029 | inactive: -0.009 | inactive: 0.039 | inactive: -0.08 | inactive: 0.041 | inactive: 0.001 | inactive: -0.001 | inactive: 0.089
5 | STX18 (UniProt Q9P2W9) | inactive: 0.015 | inactive: 0.082 | inactive: -0.07 | inactive: -0.073 | inactive: -0.089 | inactive: -0.014 | inactive: 0 | inactive: -0.042 | inactive: -0.037 | inactive: 0.052
6 | STX3 (UniProt Q13277) | inactive: 0.008 | inactive: -0.012 | inactive: 0.038 | inactive: -0.02 | inactive: 0.012 | inactive: 0.043 | inactive: 0.004 | inactive: 0.051 | inactive: -0.053 | inactive: -0.023
7 | STRADA (UniProt Q7RTN6) | inactive: -0.039 | inactive: -0.034 | inactive: 0.044 | inactive: -0.064 | inactive: 0.034 | inactive: 0.001 | inactive: 0.034 | inactive: 0.019 | inactive: 0.035 | inactive: 0.036
8 | TACC1 isoform 2 (UniProt O75410) | inactive: -0.069 | inactive: -0.02 | inactive: 0.006 | inactive: 0.04 | inactive: -0.028 | inactive: -0.052 | inactive: 0.02 | inactive: 0.017 | inactive: 0.028 | inactive: 0.031
9 | TARS2 (UniProt Q9BW92) | inactive: -0.081 | inactive: 0.114 | inactive: -0.094 | inactive: -0.003 | inactive: -0.055 | inactive: 0 | inactive: 0.084 | inactive: 0.022 | inactive: -0.119 | inactive: 0.013
10 | SYVN1 (UniProt Q86TM6) | inactive: -0.057 | inactive: 0 | inactive: -0.007 | inactive: 0.028 | inactive: 0.048 | inactive: -0.034 | inactive: 0.029 | inactive: 0.008 | inactive: -0.021 | inactive: 0.045
11 | SYNCRIP (UniProt O60506) | inactive: 0.047 | inactive: -0.015 | inactive: -0.045 | inactive: 0.036 | inactive: 0.092 | inactive: 0.006 | inactive: -0.185 | inactive: -0.111 | inactive: 0.108 | inactive: -0.067
12 | SUN2 (UniProt Q9UH99) | inactive: -0.04 | inactive: 0.016 | inactive: -0.007 | inactive: -0.036 | inactive: 0.004 | inactive: -0.071 | inactive: -0.052 | inactive: -0.008 | inactive: 0.013 | inactive: -0.064
13 | STX4 (UniProt Q12846) | inactive: -0.074 | inactive: -0.031 | inactive: -0.014 | inactive: -0.082 | inactive: -0.086 | inactive: 0.085 | inactive: 0.073 | inactive: 0.018 | inactive: -0.007 | inactive: 0.04
14 | SUB1 (UniProt P53999) | inactive: -0.043 | inactive: -0.046 | inactive: 0.016 | inactive: -0.012 | inactive: 0.033 | inactive: -0.006 | inactive: 0 | inactive: 0.009 | inactive: 0.024 | inactive: -0.01
15 | TALDO1 (UniProt P37837) | inactive: -0.02 | inactive: 0.069 | inactive: -0.057 | inactive: 0.005 | inactive: -0.071 | inactive: -0.029 | inactive: 0.061 | inactive: 0.051 | inactive: -0.076 | inactive: 0.101
16 | SUPT5H (UniProt O00267) | inactive: -0.044 | inactive: 0.033 | inactive: -0.055 | inactive: -0.042 | inactive: -0.082 | inactive: 0.01 | inactive: 0.024 | inactive: 0.036 | inactive: -0.037 | inactive: 0.031
17 | TARSL2 (UniProt A2RTX5) | inactive: -0.049 | inactive: 0.048 | inactive: -0.026 | inactive: -0.046 | inactive: -0.092 | inactive: -0.025 | inactive: 0.093 | inactive: 0.087 | inactive: -0.062 | inactive: 0.106
18 | SYNJ1 (UniProt O43426) | inactive: -0.017 | inactive: 0.046 | inactive: 0.001 | inactive: -0.011 | inactive: 0.037 | inactive: 0.01 | inactive: 0.044 | inactive: 0.007 | inactive: 0.01 | inactive: 0.082
19 | STRN (UniProt O43815) | inactive: -0.016 | inactive: 0.063 | inactive: 0.014 | inactive: 0.048 | inactive: -0.068 | inactive: -0.008 | inactive: 0.022 | inactive: -0.064 | inactive: 0 | inactive: 0.021
20 | SYNE2 isoform 2 (UniProt Q8WXH0) | inactive: -0.008 | inactive: 0.031 | inactive: -0.115 | inactive: 0.006 | inactive: -0.019 | inactive: -0.069 | inactive: 0.153 | inactive: 0.027 | inactive: -0.029 | inactive: 0.233
21 | SURF2 (UniProt Q15527) | inactive: -0.103 | inactive: 0.039 | inactive: 0.054 | inactive: -0.048 | inactive: -0.02 | inactive: 0.082 | inactive: -0.012 | inactive: 0.053 | inactive: 0.034 | inactive: -0.013
22 | STX7 (UniProt O15400) | inactive: -0.06 | inactive: -0.135 | inactive: 0.009 | inactive: 0.013 | inactive: 0.03 | inactive: -0.017 | inactive: -0.007 | inactive: 0.029 | inactive: 0.025 | inactive: 0.007
23 | TADA3 (UniProt O75528) | inactive: -0.056 | inactive: 0 | inactive: -0.047 | inactive: -0.004 | inactive: -0.01 | inactive: -0.03 | inactive: 0.007 | inactive: -0.004 | inactive: 0.027 | inactive: 0
24 | SYMPK (UniProt Q92797) | inactive: -0.027 | inactive: 0.036 | inactive: -0.192 | inactive: -0.001 | inactive: -0.156 | inactive: 0.037 | inactive: -0.017 | inactive: -0.043 | inactive: -0.152 | inactive: 0.015
25 | SUGP1 (UniProt Q8IWZ8) | inactive: -0.033 | inactive: 0.012 | inactive: -0.019 | inactive: -0.058 | inactive: -0.139 | inactive: -0.043 | inactive: 0.08 | inactive: -0.012 | inactive: -0.007 | inactive: 0.063
26 | TANK (UniProt Q92844) | inactive: -0.049 | inactive: -0.106 | inactive: 0.054 | active: 0.337 | inactive: -0.025 | inactive: 0.082 | inactive: -0.021 | inactive: -0.036 | inactive: -0.016 | inactive: 0.03
27 | SUCLG1 (UniProt P53597) | inactive: -0.065 | inactive: -0.01 | inactive: -0.077 | inactive: 0.029 | inactive: -0.025 | inactive: -0.008 | inactive: 0.027 | inactive: 0.078 | inactive: -0.008 | active: -0.273
28 | SYP (UniProt P08247) | inactive: -0.041 | inactive: 0 | inactive: -0.053 | inactive: 0.016 | inactive: 0.019 | inactive: 0.027 | inactive: 0.05 | inactive: 0.023 | inactive: 0.048 | inactive: 0.127
29 | TAOK1 (UniProt Q7L7X3) | inactive: -0.056 | inactive: 0.025 | inactive: 0.007 | inactive: -0.023 | inactive: -0.014 | inactive: -0.03 | inactive: 0.043 | inactive: -0.026 | inactive: 0.067 | inactive: 0.078
30 | STX12 (UniProt Q86Y82) | inactive: -0.056 | inactive: -0.022 | inactive: 0.015 | inactive: -0.036 | inactive: 0.059 | inactive: -0.003 | inactive: 0.02 | inactive: 0.044 | inactive: -0.025 | inactive: 0.018

Some of the entries above, set out differently:
Row,Target,log2 fold change [1],log2 fold change [2],log2 fold change [3],log2 fold change [4],log2 fold change [5],log2 fold change [6],log2 fold change [7],log2 fold change [8],log2 fold change [9],log2 fold change [10]
5,STX18 (UniProt Q9P2W9),inactive: 0.015,inactive: 0.082,inactive: -0.07,inactive: -0.073,inactive: -0.089,inactive: -0.014,inactive: 0,inactive: -0.042,inactive: -0.037,inactive: 0.052
20,SYNE2 isoform 2 (UniProt Q8WXH0),inactive: -0.008,inactive: 0.031,inactive: -0.115,inactive: 0.006,inactive: -0.019,inactive: -0.069,inactive: 0.153,inactive: 0.027,inactive: -0.029,inactive: 0.233
